In PubChem BioAssay AID248 (DTP/NCI, 2004):
The list shows only some results of the screen, not a fair sample: it is rich in T/C values a quarter to a half above the control, in often repeated tests (any T/C) and in doses without a T/C. Further doses and runs are listed elsewhere. T/C: endpoint of the treated group in % of that of the vehicle group. Some entries give survivors of the animals treated and no T/C: the source files T/C as zero there, which appears to mark a toxic dose or a test without result, not a measured value. Some doses without a T/C left all or most animals alive at the check, yet need not have been tolerated: the source hardly ever lists a survival T/C far under the control, and the zero likely stands for such cases as well. Counts of survivors are from the toxicity check (mostly the fifth day) where no day follows; animals may have died later. Schedule codes are those of the source, read here as Q, the interval in days (D) or hours (H), X, the number of doses. Some entries hold several experiments; the values are given in rising order. Some schedules carry Z or #; the key to these is not given. Where survival is the endpoint, the PubChem record calls one and a half times the control and up active, and a quarter to a half above the control has no call in these data; cut-offs in other NCI protocols can differ. Some T/C values carry the count of animals alive at the toxicity check (mostly the fifth day); where none is given, no animal had died by that day.

System: L1210 leukemia ip in BDF1 mice, survival T/C
Assay: NCI In Vivo Anticancer Drug Screen. Data for tumor model L1210 Leukemia (intraperitoneal) in B6D2F1 (BDF1) mice
Settings: T/C endpoint: mean survival time, higher T/C = longer survival
[1] = dose: 400.0 mg/kg/injection, schedule: Q01DX001 (ip), vehicle: saline

Structure (SMILES): O=NN(CCCl)C(=O)N[C@H]1CCCC[C@@H]1Cl
- survivor count (dose: 1.0 mg/kg/injection, schedule: Q## X024 (ip), vehicle: other): 6 of 10
- T/C (dose: 3.35 mg/kg/injection, schedule: Q01DX015 (ip), vehicle: other): 128 % of control
- T/C (dose: 5.1 mg/kg/injection, schedule: Q01DX015 (ip), vehicle: other): 146 % of control
- T/C (dose: 6.0 mg/kg/injection, schedule: Q01DX001 (ip), vehicle: other): 139 % of control
- survivor count (dose: 6.0 mg/kg/injection, schedule: Q## X008 (ip), vehicle: other): 3 of 10
- survivor count (dose: 6.0 mg/kg/injection, schedule: Q## X024 (ip), vehicle: other): 5 of 10
- T/C (dose: 6.0 mg/kg/injection, schedule: Q## X024 (oral), vehicle: other): 126 % of control
- T/C (dose: 10.0 mg/kg/injection, schedule: Q## X032 (ip), vehicle: other): 132 % of control [9 of 10 alive]
- T/C (dose: 10.4 mg/kg/injection, schedule: Q## X032 (ip), vehicle: other): 137 % of control
- T/C (dose: 12.0 mg/kg/injection, schedule: Q01DX001 (ip), vehicle: carboxymethylcellulose (CMC)): 133 % of control
- T/C (dose: 12.0 mg/kg/injection, schedule: Q01DX001 (oral), vehicle: other): 129 % of control
- T/C (dose: 12.0 mg/kg/injection, schedule: Q01DX001 (sc), vehicle: other): 140 % of control
- survivor count (dose: 12.0 mg/kg/injection, schedule: Q## X008 (ip), vehicle: other): 6 of 10
- survivor count (dose: 12.0 mg/kg/injection, schedule: Q## X024 (ip), vehicle: other): 2 of 10
- T/C (dose: 12.0 mg/kg/injection, schedule: Q## X024 (oral), vehicle: other): 135 % of control
- T/C (dose: 13.0 mg/kg/injection, schedule: Q01DX001 (ip), vehicle: carboxymethylcellulose (CMC)): 141 % of control
- T/C (dose: 15.25 mg/kg/injection, schedule: Q01DX001 (ip), vehicle: other): 148 % of control
- T/C (dose: 16.0 mg/kg/injection, schedule: Q## X032 (ip), vehicle: other): 142 % of control
- T/C (dose: 21.6 mg/kg/injection, schedule: Q01DX001 (ip), vehicle: carboxymethylcellulose (CMC)): 136 % of control
- survivor count (dose: 24.0 mg/kg/injection, schedule: Q## X008 (ip), vehicle: other): 4 of 10
- survivor count (dose: 24.0 mg/kg/injection, schedule: Q## X024 (ip), vehicle: other): 2 of 10
- T/C (dose: 24.0 mg/kg/injection, schedule: Q## X032 (ip), vehicle: other): 148 % of control
- T/C (dose: 30.0 mg/kg/injection, schedule: Q01DX009 (oral), vehicle: other): 132 % of control
- T/C (dose: 36.0 mg/kg/injection, schedule: Q## X032 (ip), vehicle: other): 146 % of control
- survivor count (dose: 48.0 mg/kg/injection, schedule: Q## X008 (ip), vehicle: other): 3 of 10
- T/C (dose: 54.0 mg/kg/injection, schedule: Q## X032 (ip), vehicle: other): 146 % of control
- survivor count (dose: 60.0 mg/kg/injection, schedule: Q01DX005 (ip), vehicle: other): 10 of 10
- survivor count (dose: 60.0 mg/kg/injection, schedule: Q01DX009 (ip), vehicle: other): 9 of 10
- survivor count (dose: 60.0 mg/kg/injection, schedule: Q01DX009 (oral), vehicle: other): 10 of 10
- T/C (dose: 60.0 mg/kg/injection, schedule: Q## X003 (oral), vehicle: other): 142 % of control
- T/C (dose: 61.0 mg/kg/injection, schedule: Q01DX001 (ip), vehicle: other, evaluated on day 46): 478 and 519 % of control [8 of 9 alive]
- T/C (dose: 61.0 mg/kg/injection, schedule: Q01DX001 (ip), vehicle: other, evaluated on day 99): 383 % of control
- T/C (dose: 61.0 mg/kg/injection, schedule: Q01DX001 (ip), vehicle: other, run until all animals had died): 219 and 273 % of control
- T/C (dose: 96.0 mg/kg/injection, schedule: Q01DX001 (oral), vehicle: other): 142 % of control
- survivor count (dose: 96.0 mg/kg/injection, schedule: Q## X008 (ip), vehicle: other): 1 of 10
- survivor count (dose: 120.0 mg/kg/injection, schedule: Q01DX005 (ip), vehicle: other): 2 of 10
- survivor count (dose: 120.0 mg/kg/injection, schedule: Q01DX005 (oral), vehicle: other): 8 of 10
- survivor count (dose: 120.0 mg/kg/injection, schedule: Q01DX009 (ip), vehicle: other): 2 of 10
- survivor count (dose: 120.0 mg/kg/injection, schedule: Q01DX009 (oral), vehicle: other): 7 of 10
- survivor count (dose: 120.0 mg/kg/injection, schedule: Q01DX009 (sc), vehicle: other): 9 of 10
- survivor count (dose: 120.0 mg/kg/injection, schedule: Q## X003 (ip), vehicle: other): 4 of 10
- T/C (dose: 137.0 mg/kg/injection, schedule: Q01DX001 (ip), vehicle: other): 147 % of control
- T/C (dose: 137.2 mg/kg/injection, schedule: Q01DX001 (ip), vehicle: other): 135 % of control
- survivor count (dose: 187.0 mg/kg/injection, schedule: Q01DX001 (ip), vehicle: carboxymethylcellulose (CMC)): 6 of 6
- survivor count (dose: 240.0 mg/kg/injection, schedule: Q01DX005 (ip), vehicle: other): 0 of 10
- survivor count (dose: 240.0 mg/kg/injection, schedule: Q01DX005 (oral), vehicle: other): 0 of 10
- survivor count (dose: 240.0 mg/kg/injection, schedule: Q01DX009 (ip), vehicle: other): 0 of 10
- survivor count (dose: 240.0 mg/kg/injection, schedule: Q01DX009 (oral), vehicle: other): 0 of 10
- survivor count (dose: 240.0 mg/kg/injection, schedule: Q01DX009 (sc), vehicle: other): 3 of 10
- survivor count (dose: 240.0 mg/kg/injection, schedule: Q## X003 (ip), vehicle: other): 0 of 10
- survivor count (dose: 240.0 mg/kg/injection, schedule: Q## X003 (oral), vehicle: other): 4 of 10
- survivor count (dose: 375.0 mg/kg/injection, schedule: Q01DX001 (ip), vehicle: carboxymethylcellulose (CMC)): 2 of 6
- survivor count (dose: 480.0 mg/kg/injection, schedule: Q01DX005 (oral), vehicle: other): 0 of 10
- survivor count (dose: 480.0 mg/kg/injection, schedule: Q01DX009 (oral), vehicle: other): 0 of 10
- survivor count (dose: 480.0 mg/kg/injection, schedule: Q## X003 (oral), vehicle: other): 0 of 10

Structure (SMILES): Cc1cc2cccc(CN)c2cc1C
- survivor count (dose: 200.0 mg/kg/injection, schedule: Q01DX001 (ip), vehicle: Klucel (hydroxypropylcellulose) (HPC)): 3 of 6
- survivor count (dose: 400.0 mg/kg/injection, schedule: Q01DX001 (ip), vehicle: Klucel (hydroxypropylcellulose) (HPC)): 0 of 6

Structure (SMILES): CCCCCCC(=O)N(CC(C)C)CC(C)C
- survivor count (dose: 400.0 mg/kg/injection, schedule: Q01DX009 (ip), vehicle: carboxymethylcellulose (CMC)): 1 of 3 and 3 of 6

Structure (SMILES): O=C1C=CC(=O)C(c2ccccc2)=C1
- survivor count (dose: 50.0 mg/kg/injection, schedule: Q01DX001 (ip), vehicle: saline): 3 of 6
- survivor count (dose: 100.0 mg/kg/injection, schedule: Q01DX001 (ip), vehicle: saline): 1 of 6
- survivor count (dose: 200.0 mg/kg/injection, schedule: Q01DX001 (ip), vehicle: saline): 1 of 6
- survivor count [1]: 1 of 6

Structure (SMILES): ON1CCCC1
- survivor count (dose: 400.0 mg/kg/injection, schedule: Q01DX009 (ip), vehicle: water): 0 of 6

Structure (SMILES): NC(=O)c1cc([N+](=O)[O-])c(Cl)c([N+](=O)[O-])c1Cl
- survivor count (dose: 16.0 mg/kg/injection, schedule: Q01DX015 (ip), vehicle: carboxymethylcellulose (CMC)): 0 of 6
- survivor count (dose: 32.0 mg/kg/injection, schedule: Q01DX015 (ip), vehicle: carboxymethylcellulose (CMC)): 0 of 6

Structure (SMILES): O=Cc1cc(Cl)ccc1O
- survivor count (dose: 400.0 mg/kg/injection, schedule: Q01DX009 (ip), vehicle: Klucel (hydroxypropylcellulose) (HPC)): 0 of 6

Structure (SMILES): C=C1OC(=O)C(=O)N1CC(=O)O
- survivor count [1]: 1 of 4

Structure (SMILES): CN1CCCCC(=N\O)/C(=N/O)CCCC1
- survivor count (dose: 400.0 mg/kg/injection, schedule: Q01DX001 (ip), vehicle: carboxymethylcellulose (CMC)): 0 of 4

Structure (SMILES): NC(=O)OCCCc1ccccc1
- survivor count (dose: 100.0 mg/kg/injection, schedule: Q04DX003 (ip), vehicle: Klucel (hydroxypropylcellulose) (HPC)): 4 of 4
- survivor count (dose: 400.0 mg/kg/injection, schedule: Q04DX003 (ip), vehicle: Klucel (hydroxypropylcellulose) (HPC)): 2 of 4

Structure (SMILES): CC1(O)CC(=O)C2C3C=CC(C3)C21 (stereo unspecified)
- survivor count (dose: 300.0 mg/kg/injection, schedule: Q01DX001 (ip), vehicle: other): 1 of 6
